The list shows a part of the results.
The molecules below were run against ZNF384 (UniProt Q8TF68) (assay: log2 fold change, soluble protein after heating vs DMSO (PISA); higher = thermal stabilisation; K562 cells, 10 uM, 30 min; active = over 0.2 and 3.5 SD of the protein, either way, in both replicates (recomputed)).
Method in brief: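 For each measurement, 10 μM compound was applied for 30 min to K562 cells at 2×10^6 cells/mL. Aliquots were heated for 3 min across 48°C-58°C, pooled, and extracted in PBS with 0.5% NP-40 at 4°C; the supernatant after 21,000xg for 90 min was soluble protein. This was quantified by TMTpro 16plex LC-MS/MS with channel sums equalised, and thermal stability was reported relative to control samples from duplicates, on a log2 fold-change scale.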

Chains of the proteins cited; added tags and fusions are not shown. Lines headed by an entry give the natural chain unless they say otherwise; changes in a name come on top.
UniProt Q8TF68: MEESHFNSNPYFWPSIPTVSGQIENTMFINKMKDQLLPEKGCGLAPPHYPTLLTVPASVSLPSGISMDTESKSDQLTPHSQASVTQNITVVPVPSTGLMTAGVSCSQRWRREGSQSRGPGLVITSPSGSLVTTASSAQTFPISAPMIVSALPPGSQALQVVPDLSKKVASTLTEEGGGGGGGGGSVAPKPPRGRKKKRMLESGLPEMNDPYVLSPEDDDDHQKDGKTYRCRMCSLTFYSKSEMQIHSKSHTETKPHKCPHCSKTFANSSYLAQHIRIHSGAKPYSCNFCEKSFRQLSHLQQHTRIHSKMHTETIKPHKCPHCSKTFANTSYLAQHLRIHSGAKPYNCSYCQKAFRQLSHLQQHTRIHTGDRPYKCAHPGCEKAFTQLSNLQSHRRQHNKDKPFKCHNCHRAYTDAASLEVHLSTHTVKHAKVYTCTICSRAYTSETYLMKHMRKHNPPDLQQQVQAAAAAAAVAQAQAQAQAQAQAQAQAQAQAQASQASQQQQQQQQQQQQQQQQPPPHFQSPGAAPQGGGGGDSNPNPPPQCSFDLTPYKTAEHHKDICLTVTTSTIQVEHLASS

log2 fold change, inactive:
Cc1cccc(CC(=O)N2CCc3c2ccc(-c2cn(C)c4ncnc(N)c24)c3F)n1 -0.019
NC(=O)Nc1cc(-c2cccc(F)c2)sc1C(=O)N[C@H]1CCCNC1 0.265
c1cn2cc(-c3ccc4cn[nH]c4c3)nc(Nc3ccc(N4CCOCC4)cc3)c2n1 [entospletinib] 0.198
CS(=O)(=O)c1ccc(-c2cnc(N)c(C(=O)Nc3ccccc3)n2)cc1 -0.074
Cc1cc(Nc2cc(N3CCN(C)CC3)nc(Sc3ccc(NC(=O)C4CC4)cc3)n2)n[nH]1 [tozasertib] 0.3
O=C(CCCCCCC(=O)Nc1ccccc1)NO [vorinostat] -0.173
CN(CCOc1ccc(C[C@@H]2SC(=O)NC2=O)cc1)c1ccccn1 (racemic) [rosiglitazone] -0.034
CON(C)C(=O)N1N=C(c2cc(F)ccc2F)S[C@@]1(CCCN)c1ccccc1 [filanesib] 0.198
Cc1cc(Nc2cc(CN3CCOCC3)c3nc(C)c(Cc4ccc(Cl)cc4F)n3n2)n[nH]1 [gandotinib] 0.12
Cc1ccc(NC(=O)c2cccc(C(C)(C)C#N)c2)cc1Nc1ccc2ncn(C)c(=O)c2c1 -0.203
CS(=O)(=O)N1CCN(Cc2cc3nc(-c4cccc5[nH]ncc45)nc(N4CCOCC4)c3s2)CC1 [pictilisib] -0.043
CCn1c(C(=O)N(C2CC2)C2CC2)cc2c3c(ncn3C)c(Nc3cc(C)n(C)n3)nc21 -0.064
CN1CCC(CNc2ccc3ncc(-c4cccc(OC(F)(F)F)c4)n3n2)CC1 0.116
CN1CCN(c2nc(C3=C(c4c[nH]c5ccccc45)C(=O)NC3=O)c3ccccc3n2)CC1 [sotrastaurin] 0.059
CN1CC[C@H](c2c(O)cc(O)c3c(=O)cc(-c4ccccc4Cl)oc23)[C@H](O)C1 [alvocidib] 0.165
Nc1ccccc1NC(=O)c1ccc(CNC(=O)OCc2cccnc2)cc1 [entinostat] -0.163
CCn1cc(-c2ccnc3[nH]c(-c4cccc(CN(C)C)c4)cc23)c(-c2ccc(NC(=O)N(C)C)cc2)n1 0.079

Some of these compounds in order of formula weight, rising.
log2 fold change, inactive:
CON(C)C(=O)N1N=C(c2cc(F)ccc2F)S[C@@]1(CCCN)c1ccccc1 [filanesib] 0.198
CCn1cc(-c2ccnc3[nH]c(-c4cccc(CN(C)C)c4)cc23)c(-c2ccc(NC(=O)N(C)C)cc2)n1 0.079
CS(=O)(=O)N1CCN(Cc2cc3nc(-c4cccc5[nH]ncc45)nc(N4CCOCC4)c3s2)CC1 [pictilisib] -0.043
